Assay results reported in patent publication US20080262011A1, “Modulator” (priority 2004, published 2008).
For at least one compound, name, drawing or mass did not settle the structure.

Sequences of proteins named here, by UniProt entry; tags and fusion partners are left off.
UniProt P47746, whole entry: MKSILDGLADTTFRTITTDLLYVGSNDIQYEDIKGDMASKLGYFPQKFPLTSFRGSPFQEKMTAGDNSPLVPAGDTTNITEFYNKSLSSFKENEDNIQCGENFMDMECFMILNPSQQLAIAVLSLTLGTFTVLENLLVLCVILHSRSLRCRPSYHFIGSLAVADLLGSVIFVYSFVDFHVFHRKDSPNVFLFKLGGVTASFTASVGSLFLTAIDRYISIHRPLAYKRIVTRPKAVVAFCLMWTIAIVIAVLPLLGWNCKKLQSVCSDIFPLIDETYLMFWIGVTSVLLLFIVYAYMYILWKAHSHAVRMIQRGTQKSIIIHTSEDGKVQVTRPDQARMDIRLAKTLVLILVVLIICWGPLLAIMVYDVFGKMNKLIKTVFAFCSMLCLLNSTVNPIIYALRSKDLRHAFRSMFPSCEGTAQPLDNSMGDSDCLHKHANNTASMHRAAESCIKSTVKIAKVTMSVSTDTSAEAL

Legend:
spastic ABH mice = experiment: Assessment of spasticity: force required for hind limb flexion; format: in vivo, mouse; settings: force for hind limb flexion versus time post injection, FIG. 6
CB1 = target: T1, CB1 (Mus musculus, UniProt P47746); experiment: Electrically stimulated precontracted mouse vas deferens; format: cell-based; settings: FIG. 5
T1 construct: from tissue; host or cells: isolated mouse vas deferens

CCCCCCC(C)(C)c1ccc(-c2cccc(O)c2)c(O)c1 [VSN13, 4-(1,1-Dimethylheptyl)-1,1′-biphenyl-2,3′-diol]
inhibitory effect in spasticity in vivo (spastic ABH mice): anti-spastic | CB1 agonism in vitro (inhibition of contractions) (CB1): CB1 agonism | inhibition of the observed CB1 agonism by a CB1 antagonist (CB1; with SR141617A): can be inhibited by the CB1 antagonist SR141617A
